Measured values as given in the supplement of paper PMC6078165.
The reference is the same well before dosing, and untreated signal decays as well.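 Labels refer to human fibroblasts, largely primary: uterine (C12385, HUF), lung (H6013), bone (Hs27A), adrenal (HADF), skin (WS1), plus mammary HMF and breast cancer-associated Hs343T. Cancer lines are basal-like or mesenchymal-like triple-negative breast cancer. The paper counts as hits responses shifting over 3x the replicate standard deviation. The tissue of the other fibroblasts is not given here.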

System: HCC1143
Assay: relative JC-1 red fluorescence (viability) vs pre-drug, coculture with fibroblast (fraction); higher = more viable cancer cells
Method: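 JC-1 labelled TNBC cells cocultured 1:1 (1,500 cells each) with CellTrace Violet stained primary or stromal fibroblasts in 384-well plates in FluoroBrite medium, treated with one of 42 anticancer drugs at 0.1, 1, 10 or 100 uM. JC-1 red fluorescence (mitochondrial integrity in cancer cells only) was read by plate reader every 8 h for 72 h. Values are normalised to each well's pre-drug value. The stock of one drug was tenfold lower, so its dose labels may be too high.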

CN(Cc1cnc2nc(N)nc(N)c2n1)c1ccc(C(=O)N[C@@H](CCC(=O)O)C(=O)O)cc1 [Methotrexate]
relative JC-1 red fluorescence
Conditions	8 h	16 h	24 h	32 h	40 h	48 h	56 h	64 h	72 h
0.1 µM, coculture fibroblast: C12385	0.855	0.754	0.698	0.625	0.565	0.521	0.48	0.447	0.433
0.1 µM, coculture fibroblast: H6013	0.742	0.618	0.59	0.573	0.5	0.507	0.477	0.467	0.434
0.1 µM, coculture fibroblast: H6019	0.786	0.708	0.671	0.605	0.563	0.54	0.495	0.461	0.43
0.1 µM, coculture fibroblast: H6076	0.811	0.78	0.715	0.647	0.608	0.595	0.567	0.545	0.541
0.1 µM, coculture fibroblast: H6231	0.821	0.858	0.753	0.594	0.632	0.585	0.542	0.494	0.457
0.1 µM, coculture fibroblast: HADF	0.728	0.64578	0.627	0.6436	0.548	0.532	0.493	0.47	0.455
0.1 µM, coculture fibroblast: HCFa	0.8096	0.686	0.653	0.64733	0.539	0.513	0.459	0.423	0.393
0.1 µM, coculture fibroblast: HCPF	0.7977	0.8087	0.73	0.58354	0.624	0.57326	0.5329	0.493	0.462
0.1 µM, coculture fibroblast: HHSteC	0.863	0.786	0.752	0.712	0.647	0.613	0.573	0.542	0.492
0.1 µM, coculture fibroblast: HMF	0.8137	0.834	0.754	0.6281	0.651	0.608	0.5572	0.51	0.475
0.1 µM, coculture fibroblast: HPFa	0.921	0.817	0.763	0.667	0.602	0.562	0.51891	0.468	0.437
0.1 µM, coculture fibroblast: HUF	0.8599	0.753	0.701	0.6324	0.5699	0.538	0.484	0.449	0.425
0.1 µM, coculture fibroblast: Hs5	0.863	0.8869	0.8193	0.7639	0.71737	0.685	0.652	0.616	0.612
0.1 µM, coculture fibroblast: Hs27A	0.78	0.721	0.723	0.755	0.703	0.738	0.706	0.708	0.646
0.1 µM, coculture fibroblast: Hs343T	0.824	0.845	0.773	0.663	0.674	0.627	0.576	0.541	0.498
0.1 µM, coculture fibroblast: WS1	0.818	0.735	0.687	0.602	0.543	0.497	0.456	0.425	0.42
1 µM, coculture fibroblast: C12385	0.84	0.7234	0.6734	0.609	0.5409	0.493	0.455	0.423	0.41
1 µM, coculture fibroblast: H6013	0.75314	0.6259	0.588	0.568	0.505	0.505	0.474	0.474	0.441
1 µM, coculture fibroblast: H6019	0.7604	0.666	0.628	0.571	0.527	0.506	0.463	0.43	0.403
1 µM, coculture fibroblast: H6076	0.774	0.771	0.732	0.679	0.638	0.61	0.582	0.558	0.563
1 µM, coculture fibroblast: H6231	0.812	0.821	0.708	0.571	0.58	0.532	0.487	0.444	0.417
1 µM, coculture fibroblast: HADF	0.769	0.689	0.676	0.682	0.607	0.599	0.583	0.564	0.526
1 µM, coculture fibroblast: HCFa	0.759	0.666	0.6217	0.601	0.509	0.475	0.424	0.387	0.346
1 µM, coculture fibroblast: HCPF	0.819	0.754	0.7049	0.66	0.621	0.59	0.558	0.531	0.526
1 µM, coculture fibroblast: HHSteC	0.861	0.766	0.73	0.683	0.603	0.573	0.516	0.491	0.435
1 µM, coculture fibroblast: HMF	0.809	0.785	0.71	0.614	0.607	0.567	0.52	0.491	0.474
1 µM, coculture fibroblast: HPFa	0.924	0.796	0.7441	0.6462	0.585	0.551	0.4967	0.458	0.424
1 µM, coculture fibroblast: HUF	0.872	0.763	0.71	0.637	0.578	0.538	0.481	0.448	0.411
1 µM, coculture fibroblast: Hs5	0.8751	0.901	0.8532	0.788	0.749	0.709	0.672	0.646	0.629
1 µM, coculture fibroblast: Hs27A	0.713	0.62243	0.584	0.602	0.502	0.514	0.483	0.481	0.442
1 µM, coculture fibroblast: Hs343T	0.791	0.787	0.715	0.624	0.6	0.555	0.504	0.48027	0.4492
1 µM, coculture fibroblast: WS1	0.876	0.795	0.774	0.724	0.685	0.641	0.592	0.558	0.536
10 µM, coculture fibroblast: C12385	0.867	0.794	0.719	0.664	0.603	0.571	0.539	0.495	0.48
10 µM, coculture fibroblast: H6013	0.7371	0.6427	0.6181	0.6005	0.51476	0.5018	0.4701	0.4527	0.437
10 µM, coculture fibroblast: H6019	0.787	0.71869	0.679	0.612	0.5761	0.555	0.523	0.499	0.479
10 µM, coculture fibroblast: H6076	0.795	0.757	0.702	0.658	0.612	0.597	0.57	0.545	0.5568
10 µM, coculture fibroblast: H6231	0.81	0.853	0.768	0.618	0.655	0.602	0.546	0.496	0.4651
10 µM, coculture fibroblast: HADF	0.718	0.648	0.637	0.657	0.575	0.567	0.542	0.523	0.51
10 µM, coculture fibroblast: HCFa	0.7517	0.6227	0.583	0.563	0.461	0.425	0.3641	0.327	0.294
10 µM, coculture fibroblast: HCPF	0.83	0.744	0.72	0.673	0.634	0.606	0.566	0.536	0.524
10 µM, coculture fibroblast: HHSteC	0.861	0.773	0.728	0.695	0.617	0.58	0.537	0.51	0.473
10 µM, coculture fibroblast: HMF	0.776	0.755	0.678	0.593	0.571	0.542	0.498	0.466	0.434
10 µM, coculture fibroblast: HPFa	0.8979	0.7949	0.753	0.667	0.597	0.567	0.519	0.473	0.447
10 µM, coculture fibroblast: HUF	0.874	0.766	0.682	0.593	0.514	0.473	0.425	0.387	0.355
10 µM, coculture fibroblast: Hs5	0.87398	0.8338	0.7912	0.76	0.698	0.673	0.647	0.622	0.635
10 µM, coculture fibroblast: Hs27A	0.706	0.634	0.601	0.646	0.519	0.508	0.481	0.463	0.481
10 µM, coculture fibroblast: Hs343T	0.83	0.837	0.774	0.692	0.699	0.664	0.625	0.591	0.559
10 µM, coculture fibroblast: WS1	0.84	0.752	0.697	0.633	0.569	0.516	0.454	0.415	0.374
100 µM, coculture fibroblast: C12385	0.8267	0.726	0.67	0.607	0.308	0.286	0.27	0.25	0.241
100 µM, coculture fibroblast: H6013	0.719	0.645	0.607	0.582	0.517	0.515	0.482	0.477	0.443
100 µM, coculture fibroblast: H6019	0.7884	0.708	0.663	0.602	0.557	0.535	0.492	0.461	0.435
100 µM, coculture fibroblast: H6076	0.811	0.792	0.771	0.752	0.711	0.706	0.679	0.665	0.674
100 µM, coculture fibroblast: H6231	0.819	0.8	0.732	0.631	0.635	0.596	0.55	0.512	0.489
100 µM, coculture fibroblast: HADF	0.718	0.648	0.614	0.608	0.524	0.494	0.46	0.431	0.401
100 µM, coculture fibroblast: HCFa	0.7721	0.699	0.648	0.617	0.532	0.501	0.45	0.415	0.374
100 µM, coculture fibroblast: HCPF	0.806	0.8	0.738	0.638	0.6408	0.6049	0.56	0.5201	0.4931
100 µM, coculture fibroblast: HHSteC	0.816	0.753	0.722	0.681	0.609	0.572	0.514	0.478	0.43
100 µM, coculture fibroblast: HMF	0.773	0.7755	0.715	0.64	0.602	0.563	0.518	0.487	0.464
100 µM, coculture fibroblast: HPFa	0.907	0.807	0.789	0.721	0.673	0.651	0.614	0.597	0.567
100 µM, coculture fibroblast: HUF	0.836	0.737	0.682	0.606	0.555	0.499	0.454	0.42	0.389
100 µM, coculture fibroblast: Hs5	0.83554	0.814	0.764	0.738	0.659	0.627	0.607	0.585	0.586
100 µM, coculture fibroblast: Hs27A	0.711	0.62	0.597	0.626	0.512	0.512	0.489	0.476	0.463
100 µM, coculture fibroblast: Hs343T	0.7995	0.807	0.732	0.65	0.615	0.571	0.524	0.485	0.448
100 µM, coculture fibroblast: WS1	0.824	0.717	0.671	0.59	0.532	0.491	0.447	0.415	0.389
